From publication PMC12101500, “Mechanism of D-type cyclin recognition by the AMBRA1 E3 ligase receptor” (Science Advances, 2025)
No constants are given. Whether binding was seen depends on the method and setting. For some assays here: Binding seen in cells or lysates may run through a third protein. Some results given as binding are weak or reduced against the parent protein; the word gives no strength.

Amino acid sequences for entries named in this document (tags omitted). A change or cut given only in a name is not applied to a line headed by its entry. Chains listed by the source or under a name are the forms on record and can include a tag or linker.
CDK4EE (P11802, form named): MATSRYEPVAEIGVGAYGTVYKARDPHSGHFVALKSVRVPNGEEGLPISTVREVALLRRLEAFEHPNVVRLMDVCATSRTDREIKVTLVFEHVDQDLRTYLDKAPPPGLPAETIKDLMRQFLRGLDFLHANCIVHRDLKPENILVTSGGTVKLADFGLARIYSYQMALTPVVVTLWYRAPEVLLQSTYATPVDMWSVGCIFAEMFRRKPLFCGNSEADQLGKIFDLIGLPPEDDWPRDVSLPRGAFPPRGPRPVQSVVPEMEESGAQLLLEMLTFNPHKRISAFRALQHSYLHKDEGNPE
MBP-AMBRA1^WD40 (Q9C0C7, form named): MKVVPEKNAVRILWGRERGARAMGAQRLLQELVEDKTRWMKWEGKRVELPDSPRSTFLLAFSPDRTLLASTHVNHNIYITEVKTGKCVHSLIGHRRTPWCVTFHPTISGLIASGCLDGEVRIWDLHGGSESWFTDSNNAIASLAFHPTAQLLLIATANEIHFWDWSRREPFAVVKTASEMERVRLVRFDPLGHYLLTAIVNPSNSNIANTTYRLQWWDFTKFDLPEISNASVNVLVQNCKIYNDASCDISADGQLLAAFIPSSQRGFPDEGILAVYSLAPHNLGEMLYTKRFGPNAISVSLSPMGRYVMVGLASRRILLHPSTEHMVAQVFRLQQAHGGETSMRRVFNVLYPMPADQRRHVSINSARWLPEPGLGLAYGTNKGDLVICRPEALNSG
UniProt P24385: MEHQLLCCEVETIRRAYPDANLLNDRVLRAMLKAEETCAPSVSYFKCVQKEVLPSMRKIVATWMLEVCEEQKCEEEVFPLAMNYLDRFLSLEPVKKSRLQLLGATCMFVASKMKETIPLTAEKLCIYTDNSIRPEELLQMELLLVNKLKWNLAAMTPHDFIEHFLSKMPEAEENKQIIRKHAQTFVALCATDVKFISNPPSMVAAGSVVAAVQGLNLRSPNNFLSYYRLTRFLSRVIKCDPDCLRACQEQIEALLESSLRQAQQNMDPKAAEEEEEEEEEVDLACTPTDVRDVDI
UniProt P30279: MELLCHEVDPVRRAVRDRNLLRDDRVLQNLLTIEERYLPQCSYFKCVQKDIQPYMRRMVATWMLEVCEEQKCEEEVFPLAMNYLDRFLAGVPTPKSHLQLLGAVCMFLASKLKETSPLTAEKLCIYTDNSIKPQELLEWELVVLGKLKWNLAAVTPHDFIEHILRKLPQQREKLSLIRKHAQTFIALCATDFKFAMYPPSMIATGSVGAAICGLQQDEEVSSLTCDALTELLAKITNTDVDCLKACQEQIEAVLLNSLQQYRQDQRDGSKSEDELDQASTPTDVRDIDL

B1: TSF–cyclin D3 T283A (protein, UniProt P30281 1-292)
chain: MELLCCEGTRHAPRAGPDPRLLGDQRVLQSLLRLEERYVPRASYFQCVQREIKPHMRKMLAYWMLEVCEEQRCEEEVFPLAMNYLDRYLSCVPTRKAQLQLLGAVCMLLASKLRETTPLTIEKLCIYTDHAVSPRQLRDWEVLVLGKLKWDLAAVIAHDFLAFILHRLSLPRDRQALVKKHAQTFLALCATDYTFAMYPPSMIATGSIGAAVQGLGACSMSGDELTELLAGITGTEVDCLRACQEQIEAALRESLREASQTSSSPAPKAPRGSSSQGPSQTSAPTDVTAIHL

Tests used:
CDK4EE (human) = CDK4EE (human) (UniProt P11802); assay: tandem affinity co-purification; TSF–cyclin D1/D2/D3 (WT and mutants) co-expressed with GST-CDK4EE in Expi293F; GST beads from the lysate, TEV digestion, Strep-tactin resin; SDS-PAGE
MBP-AMBRA1^WD40 (human) = MBP-AMBRA1^WD40 (human) (UniProt Q9C0C7); assay: pull-down; MBP resin, bait MBP-AMBRA1^WD40; lysate of Expi293F cells cotransfected with TSF–D-type cyclin, GST-CDK4EE, His6-DDB1 and MBP-AMBRA1^WD40; eluted with 10 mM maltose; SDS-PAGE and Western blot

Row | Molecule | binding (CDK4EE (human)) | binding (MBP-AMBRA1^WD40 (human))
1 | TSF–cyclin D1 T286A (from UniProt P24385 1-295) | binds | –
2 | TSF–cyclin D3 (full-length) (from UniProt P30281 1-292) | binds | binds
3 | TSF–cyclin D2 (full-length) (from UniProt P30279 1-289) | – | binds
4 | B1 | binds | –
